# PubChem BioAssay AID1224830, NIAID, 2016
# Aim: 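Regulators of TLR4 signalling towards TNF-alpha in macrophage-like cells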 (primary screen)
# System: human THP-1 monocytic leukaemia cells, TNF dual-luciferase reporter clone, PMA-differentiated to macrophage-like cells
# Reagent: siRNA pool against human genes, 50 nM
# Duration: LPS for 4 h, given about 3 days after siRNA transfection
# Conditions: bacterial LPS (TLR4 ligand), 10 ng/ml
# Measured: 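Ratio of firefly to renilla light, scaled to the plate median and expressed as a robust z-score per replicate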
# Direction: TNF reporter robust z-score: higher = stronger TNF reporter response to LPS
# Call rule: 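a well is active when its z-score exceeds 2.8 or falls below -1.5; control wells carry no call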
# This is a random part of about 18,000 reagents tested. About 2,900 of them (16%) were called active. 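Calls are made per well; low scores hint the gene aids the LPS response, high scores that it dampens it.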 Repeated entries: four replicate wells of each siRNA pool.
gene,TNF reporter robust z-score,Call
PRPF4,0.35,inactive
PRPF4,-0.26,inactive
PRPF4,0.45,inactive
PRPF4,-0.31,inactive
YJU2,-1.26,inactive
YJU2,-0.71,inactive
YJU2,-1.08,inactive
YJU2,-0.93,inactive
PRSS38,-1.3,inactive
PRSS38,-1.65,active
PRSS38,-1.11,inactive
PRSS38,-1.17,inactive
CHD9,0.27,inactive
CHD9,0.32,inactive
CHD9,-0.08,inactive
CHD9,0.69,inactive
MDGA2,0.65,inactive
MDGA2,0.63,inactive
MDGA2,1.55,inactive
MDGA2,0.12,inactive
GNAQ,-0.25,inactive
GNAQ,0.16,inactive
GNAQ,0.08,inactive
GNAQ,-0.01,inactive
RC3H1,1.75,inactive
RC3H1,0.44,inactive
RC3H1,-0.2,inactive
RC3H1,0.56,inactive
TSNARE1,-0.97,inactive
TSNARE1,0.21,inactive
TSNARE1,-1,inactive
TSNARE1,-0.4,inactive
OPCML,0.75,inactive
OPCML,-0.1,inactive
OPCML,-0.21,inactive
OPCML,-0.7,inactive
SLC25A1,-0.86,inactive
SLC25A1,0.03,inactive
SLC25A1,-0.65,inactive
SLC25A1,0.52,inactive
APLN,0.22,inactive
APLN,1.22,inactive
APLN,1.65,inactive
APLN,1.29,inactive
BTBD8,-0.67,inactive
BTBD8,0.21,inactive
BTBD8,-0.21,inactive
BTBD8,0.17,inactive
